Values from PubChem BioAssay AID1259308 (NCATS, 2017).

Assay: 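Knock-downs that increase output of a recombinant reporter protein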 (primary screen)
Cells: human HEK293 embryonic kidney cells stably expressing firefly luciferase (HEK-CMV-Luc2-Hygro)
Reagents: single siRNA against human genes, 0.8 pmol siRNA per well
Time to read-out: 72 h
Measurement: 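Reporter luminescence and viable-cell signal on separate replicate plates, given as percent of non-targeting control and median/MAD z-scores, plus per-cell luciferase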
Reading the numbers: total luciferase, z-score and total luciferase, % of control: higher = more reporter protein produced; luciferase per cell, z-score: higher = more reporter output per viable cell; viable cells, % of control: higher = more viable cells
Call rule: 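An siRNA counts as active if its total luciferase robust z-score exceeds 3; genes with two or more such siRNAs out of three were retested with fresh siRNAs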
Meaning of the calls: active = raised luciferase; inactive = no rise
The whole screen tested about 59,000 reagents; this is a part drawn at random. In the full data, about 1,510 (2.6%) got an active call. 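Calls use total luciferase alone and ignore viability, so some active siRNAs may act by altering cell number.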 Reagents against one gene are numbered here.

target gene | siRNA no. | total luciferase, z-score | total luciferase, % of control | luciferase per cell, z-score | viable cells, % of control | Call
ATCAY | 1 | -0.0309 | 81.3 | -0.059 | 92.2 | inactive
ATCAY | 2 | 0.255 | 87 | -0.139 | 101 | inactive
ATCAY | 3 | 3.16 | 145 | 2.46 | 84.6 | active
GLMN | 1 | 0.746 | 96.7 | 0.651 | 91.1 | inactive
GLMN | 2 | 1.03 | 102 | 0.328 | 105 | inactive
GLMN | 3 | 0.446 | 90.8 | 0.86 | 80.9 | inactive
SPEM1 | 1 | 0.0393 | 82.7 | 0.239 | 86.7 | inactive
SPEM1 | 2 | 0.228 | 86.4 | -0.114 | 99.5 | inactive
SPEM1 | 3 | 1.11 | 104 | 2.05 | 67.6 | inactive
PLIN5 | 1 | -0.376 | 74.4 | -0.00844 | 83.3 | inactive
PLIN5 | 2 | 1.28 | 107 | 0.286 | 111 | inactive
PLIN5 | 3 | 0.0862 | 83.6 | -0.387 | 103 | inactive
LHFPL4 | 1 | 1.68 | 115 | 0.645 | 109 | inactive
LHFPL4 | 2 | -0.762 | 66.7 | 1.17 | 54.8 | inactive
LHFPL4 | 3 | 0.266 | 87.2 | 0.00387 | 97.3 | inactive
SUPT16H | 1 | 0.62 | 94.2 | 0.131 | 102 | inactive
SUPT16H | 2 | 1.86 | 119 | 0.885 | 105 | inactive
SUPT16H | 3 | 2.02 | 122 | 2.24 | 75.7 | inactive
LILRA3 | 1 | -1.16 | 58.9 | -1.31 | 93 | inactive
LILRA3 | 2 | 0.295 | 87.7 | -0.464 | 111 | inactive
LILRA3 | 3 | 0.509 | 92 | 1.62 | 67.2 | inactive
ANKRD45 | 1 | -0.832 | 65.3 | -0.421 | 81.6 | inactive
ANKRD45 | 2 | 0.756 | 96.9 | 0.589 | 92.7 | inactive
ANKRD45 | 3 | 0.145 | 84.8 | 0.266 | 88.3 | inactive
GSTA1 | 1 | -0.867 | 64.6 | -1.33 | 103 | inactive
GSTA1 | 2 | -0.162 | 78.7 | -1.15 | 119 | inactive
GSTA1 | 3 | -0.204 | 77.8 | -0.265 | 93.2 | inactive
RNF144B | 1 | -0.586 | 70.2 | -0.781 | 96.4 | inactive
RNF144B | 2 | 1.59 | 113 | 1.49 | 85.7 | inactive
RNF144B | 3 | 0.707 | 96 | 0.373 | 97.2 | inactive
IFT80 | 1 | 1.21 | 106 | 1.14 | 87.8 | inactive
IFT80 | 2 | 0.512 | 92.1 | -0.106 | 106 | inactive
IFT80 | 3 | -0.891 | 64.2 | -0.571 | 83.4 | inactive
CCDC15 | 1 | 1.69 | 116 | 1.79 | 80.6 | inactive
CCDC15 | 2 | 2.16 | 125 | 2.01 | 82.2 | inactive
CCDC15 | 3 | -0.192 | 78.1 | -0.148 | 90.7 | inactive
SNX33 | 1 | 6.77 | 216 | 4.75 | 69.2 | active
SNX33 | 2 | 0.221 | 86.3 | 0.532 | 83.8 | inactive
SNX33 | 3 | -2.28 | 36.6 | -1.14 | 55.1 | inactive

Laid out differently: results already given
LILRA3 #1
- total luciferase, z-score: -1.16
- total luciferase, % of control: 58.9
- luciferase per cell, z-score: -1.31
- viable cells, % of control: 93
- Call: inactive

LILRA3 #2
- total luciferase, z-score: 0.295
- total luciferase, % of control: 87.7
- luciferase per cell, z-score: -0.464
- viable cells, % of control: 111
- Call: inactive
